Consider 60 compounds from PubChem BioAssay AID2685 (National Center for Advancing Translational Sciences (NCATS), 2010).

SMILES strings stand for the structures. This is one part of the list. Shown are side measurements of this screen, not its main read-out; they come without a call. Most of these compounds were active or inconclusive in the main read-out, so they are no random draw. Potencies come from curve fits of mixed quality, noted in brackets.

The experiment can be described thus: qHTS Assay for Lipid Storage Modulators in Drosophila S3 Cells.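 On cell number change: cells counted by Cell Tracker Red CMTPX staining in the red channel.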 Particulars: BODIPY lipid droplet fluorescence, 18-24 h; for cell number change: measured here: cell count max response, cells fed with added oleic acid. In a few lines:
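Laser-scanning cytometry quantifies lipid droplet accumulation (500–530 nm total intensity; droplet/cell object ratio) in oleic acid-fed (400 uM added) Drosophila S3 cells treated with a concentration series. 20 uM Triacsin C defined 100% inhibition.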
(In general: qHTS replaces the single test concentration by a dilution series.)

Setting [1] is: measured here: cell number channel AC50, cells fed with added oleic acid.
The mark [2] stands for this setting: measured here: lipid fluorescence (Fed channel) AC50, cells fed with added oleic acid.

For the compound `COc1ccc(C2=NO[C@@H]3[C@@H]4C[C@@H]([C@H]5C(=O)N(C)C(=O)[C@@H]45)[C@H]23)cc1`, the AC50 (in general, the concentration giving half of the maximal activity seen) under setting [1] is 2.91 µM [rising, single point].
With `COc1ccc(-c2noc(N3CCC(C(=O)Nc4cc(OC)ccc4OC)CC3)n2)cc1`, the cell number change was found to be 9.8%. Further, the AC50 under setting [2] is 4.11 µM [rising, single point].
Regarding `O=S(=O)(Nc1ccccc1)c1ccc(NS(=O)(=O)c2c(F)cccc2F)cc1`, the cell number change is -9.52%. Also, the half-maximal activity concentration (AC50) under setting [2] was 2.59 µM [falling, partial curve, poor fit].
For the compound `O=C(Cn1cc(S(=O)(=O)Cc2ccccc2)c2ccccc21)Nc1ccccc1`, the cell number change came to 16.9%.
`O=C(NCc1ccccc1)c1ccc(NC(=O)c2ccco2)cc1`: the cell number change was 3.78%.
For the compound `COCCNc1nnc(SCC(=O)Nc2cc(-c3ccccc3)nn2-c2ccccc2)s1`, the cell number change is -28%. Further, the concentration at half-maximal activity (AC50) under setting [2] was 20.6 µM [falling, partial curve].
For the compound `CC(=O)OCC(=O)[C@@]1(O)CCC2C3CCC4=CC(=O)CCC4(C)C3C(=O)CC21C` (stereo partly drawn), the cell number change is -25%. Under setting [2], the concentration at half-maximal activity (AC50) is 11.6 µM [rising, single point].
Regarding `Cc1cc(Nc2ccc3c(c2)OCCO3)c2cc(Cl)ccc2n1`, the cell number change is -8.91%. Also, under setting [2], the concentration at half-maximal activity (AC50) is 0.0651 µM [falling, full curve, poor fit].
For the compound `CN(Cc1c(F)cccc1Cl)C(=O)CCc1c[nH]c2ccccc12`, the cell number change is -14.5%. Moreover, the AC50 under setting [2] was 0.1 µM [falling, full curve, poor fit].
Regarding `S=c1[nH]nc(C2CCCCC2)n1/N=C/c1cccc(Cl)c1Cl`, the cell number change was -53.2%. Also, under setting [1], the AC50 was 20.6 µM [falling, partial curve].
As for `COCCn1c(SCC(=O)c2ccc3c(c2)OCCO3)nnc1-c1ccoc1C`, the cell number change was -0.885%. Under setting [2], the AC50 is 6.51 µM [falling, single point].
As to `O=c1c2cc3ccccc3n2cnn1Cc1ccccc1F`, the cell number change is -16.5%. For the same compound, the half-maximal activity concentration (AC50) under setting [2] is 23.1 µM [falling, single point].
As to `CCc1ccc(NC(=O)CSc2nncn2-c2cccnc2)cc1`, the cell number change is 23.9%. Besides, under setting [2], the AC50 was 6.51 µM [rising, partial curve, poor fit].
As for `CCOC(=O)C1Cn2c(nc3c(c2=O)C(C)(C)Cc2ccccc2-3)S1` (stereo not drawn), the cell number change came out at 17.7%. Moreover, under setting [2], the AC50 was 0.731 µM [falling, single point].
In the case of `O=C(Nc1ccc2oc(-c3ccccc3F)nc2c1)c1cncc(Br)c1`, the concentration at half-maximal activity (AC50) was 0.731 µM [rising, full curve] under setting [1] and 0.164 µM [rising, full curve, poor fit] under setting [2].
Take `O=C(COC(=O)C1CC1)Nc1ccccc1Sc1ccccc1`: the cell number change was found to be 14.7%.
In the case of `Cn1ncc(Br)c1C(=O)Nc1cccc(C(F)(F)F)c1`, the cell number change stood at 15.7%. The AC50 under setting [2] is 10.3 µM [rising, partial curve].
As for `Cc1ccc2[nH]c(-c3cccc(F)c3)cc(=O)c2c1`, the half-maximal activity concentration (AC50) under setting [2] was 29.1 µM [rising, single point].
As to `Cc1cccc(N(CC(=O)NCCc2ccccc2)C(=O)CCC(=O)Nc2ccccn2)c1C`, the cell number change stood at 16.8%.
Consider `Cc1c(Cl)cccc1NC(=O)c1ncn[nH]1`, for which the cell number change came out at 15.9%. For the same compound, the half-maximal activity concentration (AC50) under setting [2] was 0.366 µM [rising, single point].
Regarding `CCOc1cc(CNc2ccc(O)cc2)ccc1OCc1ccc(Cl)cc1Cl`, the AC50 runs as follows: under setting [1], 0.731 µM [rising, partial curve]; under setting [2], 1.84 µM [rising, partial curve].
On to `CCNC(=O)c1c(NC(=O)C2COc3ccccc3O2)sc2c1CCCC2` (stereo not drawn), for which the cell number change was -44.4%. For the same compound, the half-maximal activity concentration (AC50) under setting [1] was 32.6 µM [falling, single point].
For `CCNC(=S)N/N=C/c1ccccc1[N+](=O)[O-]`, the AC50 under setting [1] is 2.31 µM [rising, single point].
In the case of `Cc1nn(C)c(Cl)c1/C=N/OC(=O)c1ccc(F)cc1`, the cell number change was -48.9%. The AC50 under setting [2] is 35.5 µM [falling, partial curve, poor fit].
Turning to `CC(=O)c1ccc(OCC(O)CN2CCOCC2)cc1` (stereo not drawn), the cell number change is 37.2%. Under setting [1], the half-maximal activity concentration (AC50) is 7.31 µM [rising, single point]. Moreover, the AC50 under setting [2] is 6.51 µM [rising, partial curve, poor fit].
As to `COC(=O)c1sc(OC)cc1OCc1ccc(C)cc1`, the cell number change was 42.8%. Moreover, the AC50 under setting [1] is 20.6 µM [rising, single point]. In addition, the concentration at half-maximal activity (AC50) under setting [2] was 20.6 µM [rising, partial curve].
In the case of `COc1ccc(Nc2ncc(C(=O)O)c3ccccc23)cc1`, the cell number change worked out at 15.3%. In addition, the AC50 under setting [2] is 0.259 µM [falling, full curve, poor fit].
In the case of `C=CCN(C)CC/C=C1\c2ccccc2CSc2ccccc21`, the cell number change is -33.2%. For the same compound, the concentration at half-maximal activity (AC50) under setting [1] is 23.1 µM [falling, single point]. The AC50 under setting [2] is 29.1 µM [falling, single point].
`O=C(c1c(F)cccc1F)N1CCCC(c2nc(-c3cccs3)no2)C1` (stereo not drawn): the cell number change is 5.65%. Under setting [2], the AC50 was 29.1 µM [falling, single point].
As to `O=[N+]([O-])c1ccc(Sc2ccc(Cl)c(Cl)c2)nc1`, the cell number change worked out at 82.6%. For the same compound, the half-maximal activity concentration (AC50) under setting [1] was 29.1 µM [rising, single point].
As for `COc1cc(NC(=O)CCC(=O)OCCCC(F)(F)C(F)(F)F)nc(OC)n1`, the cell number change is -44.2%. For the same compound, the concentration at half-maximal activity (AC50) under setting [1] was 25.9 µM [falling, partial curve]. Besides, the AC50 under setting [2] was 11.6 µM [falling, partial curve].
Regarding `O=C(NC(Cc1ccccc1)C(=O)O)/C(=C\c1ccc(Cl)cc1)NC(=O)c1ccccc1` (stereo not drawn), the cell number change is -0.319%. Moreover, under setting [2], the half-maximal activity concentration (AC50) was 0.184 µM [falling, full curve, poor fit].
In the case of `CCOC(=O)CSc1nc2ccc(C)cc2n2cnnc12`, the cell number change was 18.5%.
`Cn1c(CNc2ccc(F)cc2)nc2ccccc21`: the cell number change is -9.52%. Further, under setting [2], the AC50 is 0.116 µM [rising, full curve, poor fit].
Take `O=S(=O)(N[C@H]1C[C@@H](NS(=O)(=O)OCC(Cl)(Cl)Cl)C2CCCCC21)OCC(Cl)(Cl)Cl` (stereo partly drawn): the cell number change is -38%. For the same compound, under setting [1], the half-maximal activity concentration (AC50) was 29.1 µM [falling, single point].
For the compound `COc1ccc(CN(C)Cc2nc(Cc3cccc(F)c3)no2)c2cccnc12`, the half-maximal activity concentration (AC50) under setting [2] was 29.1 µM [falling, single point].
Turning to `COc1ccc(N2CCN(C(=O)COC(=O)Cc3cccc(OC)c3)CC2)cc1`, the cell number change was -16.1%.
Regarding `Cc1ccc2[nH]c(=O)c(CN(Cc3ccc4c(c3)OCO4)Cc3nnnn3Cc3ccco3)cc2c1`, under setting [1], the AC50 was 0.326 µM [rising, partial curve, poor fit].
Take `CCOC(=O)C(Sc1cc(C)nc(N)n1)C(C)=O` (stereo not drawn): the cell number change stood at 23%. Moreover, the half-maximal activity concentration (AC50) under setting [2] was 0.164 µM [falling, full curve].
In the case of `COc1ccc(NC(=S)NC(=O)c2cc3ccccc3o2)c(OC)c1`, the cell number change was -4.34%. The AC50 under setting [2] is 0.206 µM [rising, full curve, poor fit].
In the case of `Cc1ccc(CCNC(=O)CS(=O)Cc2nc(-c3cccc(C)c3)oc2C)cc1` (stereo not drawn), the cell number change was -0.465%. Further, under setting [2], the concentration at half-maximal activity (AC50) was 5.8 µM [rising, partial curve].
Consider `CCOC(=O)c1ccc(N2C(=O)CC(Nc3ccc(CCO)cc3)C2=O)cc1` (stereo not drawn), for which the cell number change was -5.52%. Besides, the AC50 under setting [2] was 18.4 µM [falling, single point].
Take `NC(=O)CSc1ccc(-c2ccc(F)cc2)nn1`: the cell number change was found to be 75.7%. Under setting [2], the AC50 was 5.8 µM [falling, single point].
`Cc1cc(NC(=O)CSCC(=O)N2CCN(c3cccc(C(F)(F)F)c3)CC2)no1`: under setting [1], the half-maximal activity concentration (AC50) is 0.651 µM [falling, partial curve, poor fit].
In the case of `Cc1nn(-c2ccccc2)c(C)c1C(=O)OCC(=O)Nc1ccccc1`, the cell number change was 23.7%. The concentration at half-maximal activity (AC50) under setting [2] was 29.1 µM [rising, partial curve, poor fit].
As for `O=C(c1ccc2ccccc2c1)N1CCN(c2ccc(C(F)(F)F)cn2)CC1`, the cell number change was 1.08%. The AC50 under setting [1] was 6.51 µM [rising, single point]. The concentration at half-maximal activity (AC50) under setting [2] was 0.058 µM [rising, full curve, poor fit].
As to `CCn1c(SCc2ccc(F)cc2)nnc1C1CCN(S(=O)(=O)c2ccc(OC)cc2)CC1`, the cell number change worked out at 15%. Moreover, under setting [2], the AC50 was 29.1 µM [falling, single point].
For the compound `O=[N+]([O-])c1cccc(N/N=C/c2cc([N+](=O)[O-])ccc2O)c1`, the cell number change amounted to 44.5%. In addition, the AC50 under setting [1] was 0.231 µM [rising, full curve].
Take `CCN(CC)S(=O)(=O)c1ccc(C)c(NC(=O)COC(=O)CN2C(=O)NC(C)(C)C2=O)c1`: the AC50 under setting [2] is 1.84 µM [rising, partial curve].
Turning to `Nc1nonc1C(=O)NCCNCc1cc(Br)ccc1OCc1ccc(F)cc1`, the cell number change was -26.8%. Moreover, under setting [2], the AC50 was 20.6 µM [falling, single point].
For the compound `COc1ccc(NC(=O)c2sccc2C)c([N+](=O)[O-])c1`, the cell number change turned out to be 1.9%. Besides, the AC50 under setting [2] is 2.31 µM [falling, single point].
In the case of `COc1ccc(CN2C(=O)c3ccccc3C2=O)cc1C(=O)OCC(=O)NC1CCCCC1`, the cell number change was 20.3%. Further, under setting [1], the AC50 was 6.51 µM [rising, single point]. Besides, the AC50 under setting [2] was 0.731 µM [rising, full curve].
Consider `O=C1NC(=Nc2ccc(Cl)cc2)/C(=C/c2ccco2)S1`, for which the cell number change is -16.7%. Besides, the concentration at half-maximal activity (AC50) under setting [1] was 6.51 µM [rising, single point].
Turning to `Cc1cn([C@H](C(=O)NCCCCCCCCCCC(=O)N2CCN(C(=O)OC(C)(C)C)CC2)[C@@H](C)O)nn1`, the cell number change came out at 9.11%. The concentration at half-maximal activity (AC50) under setting [2] was 16.4 µM [falling, single point].
In the case of `CCOc1ccccc1N1CC(C(=O)NNC(=O)c2cc(OC)c(OC)c(OC)c2)CC1=O` (stereo not drawn), the cell number change is -5.71%. Further, the AC50 under setting [2] was 0.291 µM [rising, full curve].
Turning to `CN(CC(=O)Nc1ccc(F)cc1)C(=O)c1cn(-c2ccccc2)nc1-c1cccs1`, the cell number change is -33.4%. Also, the half-maximal activity concentration (AC50) under setting [1] was 29.1 µM [falling, single point]. The AC50 under setting [2] was 2.06 µM [falling, partial curve].
Turning to `CCOCCCNC(=O)C1CCCCN1S(=O)(=O)c1ccc(F)cc1` (stereo not drawn), the cell number change worked out at 5.27%. Under setting [2], the AC50 was 6.51 µM [falling, single point].
Consider `COc1cccc(OC)c1OC(=O)c1cnccn1`, for which the cell number change was -20%.
Turning to `O=C(CSc1nnc2sc3ccccc3n12)c1ccco1`, the AC50 under setting [2] was 6.51 µM [falling, single point].
On to `CCS(=O)CCSC(=N)N` (stereo not drawn), for which the cell number change came to 36.6%. The concentration at half-maximal activity (AC50) under setting [1] is 29.1 µM [rising, single point]. For the same compound, the half-maximal activity concentration (AC50) under setting [2] is 29.1 µM [rising, single point].
